Reference: ChEMBL document CHEMBL3132834, “Synthesis and biological activity of NOSH-naproxen (AVT-219) and NOSH-sulindac (AVT-18A) as potent anti-inflammatory agents with chemotherapeutic potential” (Medchemcomm, 2013)

Test system: Jurkat
Experiment: Cytotoxicity against human Jurkat cells assessed as growth inhibition after 24 hrs by MTT assay
Type: functional, cell-based
Outline: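 Jurkat T cells grown in suspension in RPMI 1640 with 10% FCS. 30,000 cells/well added to serially diluted compounds in V-bottom plates, 24 h at 37°C in 5% CO₂. MTT (1.1 mg/mL) added for 4 h more, formazan dissolved in DMSO, A570 read. IC₅₀ from 5–7 experiments in triplicate; ratio is parent IC₅₀ over hybrid IC₅₀.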

Work on `COc1ccc2cc([C@H](C)C(=O)O)ccc2c1` [NAPROXEN] yielded an IC50 of 2550 µM.
